Literature values, collected in patent US20140051685A1, “THERAPEUTIC TREATMENT FOR METABOLIC SYNDROME, TYPE 2 DIABETES, OBESITY OR PREDIABETES” (priority 2010, published 2014).
Entries after “also recorded” stand apart in the source; their conditions may differ. At least one compound was matched to its structure with a doubt left.

Test system: obese, diabetic mice (ob/ob strain)
Details: bromocriptine alone at 5-<10 mg/kg dose, cited from earlier work

CC(C)C[C@H]1C(=O)N2CCC[C@H]2[C@]2(O)O[C@](NC(=O)[C@@H]3C=C4c5cccc6[nH]c(Br)c(c56)C[C@H]4N(C)C3)(C(C)C)C(=O)N12 [bromocriptine]
effect on blood glucose (10 mg/kg): no effect; also recorded: not to reduce | effect on body weight (10 mg/kg): no effect; also recorded: not to reduce | effect on feeding: no effect
